Measurements reported in PubChem BioAssay AID504764 (Drosophila RNAi Screening Center, 2011)

- Aim: 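Knock-downs that raise or lower a Notch target reporter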 (primary screen)
- Cells: Drosophila Kc167 cells
- Reagent: long dsRNA against Drosophila genes
- Duration: about 5 days (4 days dsRNA, then 24 h after transfection)
- Conditions: transfection of constitutively active membrane-tethered Notch lacking the extracellular domain, read 24 h later
- Measurement: 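Firefly luciferase from an E(spl)m3 reporter with active Notch, plus control-promoter and uninduced reporter wells for normalisation; unnormalised counts, duplicate wells a and b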
- Reading the numbers: induced reporter light, run 1, well a and induced reporter light, run 1, well b: higher = more light from the Notch target reporter with active Notch; control promoter light, run 1, well a and control promoter light, run 1, well b: higher = more light from the viral control promoter (cell number, transfection, viability); uninduced reporter light, run 1, well a: higher = more light from the Notch target reporter without active Notch
- Active means: 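Wells with low control signal or poorly matching duplicates excluded; duplicates averaged; per source plate, z beyond ±2 for induced/control log2 ratio or beyond ±1.8 for induced/uninduced marks a hit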
- Calls: active = modifier hit (raised or lowered Notch signal); inactive = not a hit
The deposit covers about 22,000 reagents; this is a random part of those that have a named target and a result. In the full data, 403 (1.9%) were called active. 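Unnormalised raw counts per well; ratio z-scores behind the hit calls and whether each hit raises or lowers signal are not deposited.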 Reagent sequences are not shown. Not stated in the record: the amount of reagent.

Depletion of CG10175 [DRSC13628] gave: induced reporter light, run 1, well a = 2.04e5; induced reporter light, run 1, well b = 1.79e5; control promoter light, run 1, well a = 1.47e5; control promoter light, run 1, well b = 1.66e5; uninduced reporter light, run 1, well a = 14330; inactive.
CG10175 [DRSC14200] scored induced reporter light, run 1, well a = 1.77e5; induced reporter light, run 1, well b = 1.66e5; control promoter light, run 1, well a = 2.15e5; control promoter light, run 1, well b = 1.94e5; uninduced reporter light, run 1, well a = 16055; inactive.
CG10175 [DRSC21981] showed inactive.
With knock-down of CG13806 [DRSC08341], the record shows induced reporter light, run 1, well a = 1.12e5; induced reporter light, run 1, well b = 1.08e5; control promoter light, run 1, well a = 1.96e5; control promoter light, run 1, well b = 1.84e5; uninduced reporter light, run 1, well a = 5210; inactive.
For CaMKI [DRSC17162], the entry reads induced reporter light, run 1, well a = 1.93e5; induced reporter light, run 1, well b = 2.63e5; control promoter light, run 1, well a = 2.89e5; control promoter light, run 1, well b = 2.81e5; uninduced reporter light, run 1, well a = 17150; inactive.
After knock-down of trsn [DRSC06078] the results were induced reporter light, run 1, well a = 2.08e5; induced reporter light, run 1, well b = 1.48e5; control promoter light, run 1, well a = 2.31e5; control promoter light, run 1, well b = 1.96e5; uninduced reporter light, run 1, well a = 17605; inactive.
After knock-down of eys [DRSC00113], the record shows induced reporter light, run 1, well a = 56880; induced reporter light, run 1, well b = 53890; control promoter light, run 1, well a = 56195; control promoter light, run 1, well b = 60350; uninduced reporter light, run 1, well a = 6930; inactive.
eys [DRSC00402] scored induced reporter light, run 1, well a = 1.09e5; induced reporter light, run 1, well b = 1.25e5; control promoter light, run 1, well a = 98120; control promoter light, run 1, well b = 59295; uninduced reporter light, run 1, well a = 9480; inactive.
Depletion of eys [DRSC00403] came out at: induced reporter light, run 1, well a = 1.19e5; induced reporter light, run 1, well b = 87150; control promoter light, run 1, well a = 98465; control promoter light, run 1, well b = 52920; uninduced reporter light, run 1, well a = 8170; inactive.
Knock-down of eys [DRSC00695] gave: induced reporter light, run 1, well a = 1.29e5; induced reporter light, run 1, well b = 1.63e5; control promoter light, run 1, well a = 1.81e5; control promoter light, run 1, well b = 1.70e5; uninduced reporter light, run 1, well a = 12920; inactive.
After knock-down of Rab4 [DRSC07524], the screen gave induced reporter light, run 1, well a = 1.21e5; induced reporter light, run 1, well b = 99920; control promoter light, run 1, well a = 2.04e5; control promoter light, run 1, well b = 2.95e5; uninduced reporter light, run 1, well a = 9505; inactive.
Depletion of CG1582 [DRSC19732] gave: induced reporter light, run 1, well a = 2.30e5; induced reporter light, run 1, well b = 2.69e5; control promoter light, run 1, well a = 3.67e5; control promoter light, run 1, well b = 3.18e5; uninduced reporter light, run 1, well a = 18740; inactive.

An excerpt from above, limited to “control promoter light, run 1, well a”.
eys [DRSC00403]	98465
eys [DRSC00695]	1.81e5
